# Measured values as given in article PMC5778159 (Naunyn-Schmiedeberg's Archives of Pharmacology, 2017).
# Where a name gives a salt, the structure may show the parent alone.
# How the values were obtained:
# [1] = Isolated perfused rat liver (IPRL) study, recirculating; conditions: mean ± SD
# Experimental: (§1) Rat livers were perfused in situ using PS-1 perfusion system from Harvard Apparatus-Hugo Sachs Electronics (HA-HSE). […] The temperature of the perfusion medium was thermostatically controlled at 37 °C. In each experiment, the common bile duct was cannulated with PE-10 tubing. […] Experiments were carried out in a recirculating manner with the total volume of perfusate equal 200 mL. […] Samples of bile were collected in pre-weighed Eppendorf vials and measured by gravimetric volume at the end of perfusion period, assuming a density of 1. Perfusate was collected from the reservoir at 5 min intervals up to 45 min.
# Non-compartmental estimates of hepatic pharmacokinetic parameters were determined from the outflow concentration-time profiles. The hepatic extraction ratio (ERH) was calculated according to the following equation:2 ERH=CLH/Q where CLH is a hepatic clearance (per gram of liver) and Q is a perfusate flow (per gram of liver).
# The apparent hepatobiliary clearance (CLb,app) was calculated as the cumulative amount of drug excreted in bile divided by the AUC0-t of the drug in the perfusate.
# [2] = Stability of analytes in rat plasma (bench top, freezer, freeze/thaw, autosampler); format: in vitro ADME; conditions: bench top 2 h, − 30°C 90 days, autosampler 10°C up to 24 h
# Experimental: The stability of analytes was determined in the battery of tests according to the appropriate guidelines. Namely, the bench top stability (for 2 h), freezer stability (at − 30°C for 90 days), freeze/thaw stability and post preparative autosampler stability (at 10°C up to 24 h). Samples were considered to be stable when 85–115% of the initial concentrations were found.
# [3] = Pharmacokinetic study in rats after single i.v. or i.p. tianeptine, non-compartmental analysis; conditions: rat
# Experimental: Male Wistar rats, 13–15 weeks of age and weighing between 200 and 220 g, were used in all the experiments. They were kept under conditions of constant temperature (21–25 °C) and a relative humidity of approximately 40–65% with a standard light/dark cycle. Animals were housed in the stainless steel cages with suspended wire-mesh floors and had free access to water and the commercial rodent chow.
# Six rats were used in PK experiments, and 3 days prior to the experiment, rat jugular vein was cannulated allowing for the multiple blood sampling from a single animal. […] Plasma was harvested by centrifuging at 3000 r.p.m. for 10 min and stored at − 30°C until bioanalysis. Plasma samples (100 μL) were further processed as described in “Sample preparation” section.
# (§2) Pharmacokinetic parameters were calculated by employing a non-compartmental approach, using Phoenix WinNonlin software v. 6.3 (Pharsight, USA). For i.v. administration, plasma concentration at time zero (C 0) was back-extrapolated using log-linear regression, while the maximum concentration after i.p. administration (C max) and the time to C max (t max) were obtained directly from the concentration-time data. The area under the mean plasma concentration versus time curve extrapolated to infinity (AUC0-inf) was estimated using the log/linear trapezoidal rule. AUMC0-inf was estimated by calculation of the total area under the first-moment curve by combining the trapezoid calculation of AUMC0-t and extrapolated area. The mean residence time (MRT) was calculated from AUMC0-inf/AUC0-inf. The terminal rate constant (λ z) was calculated by log-linear regression of the drug concentration data in the terminal phase and the terminal half-life (t 1/2) was calculated as 0.693/λ z. The systemic clearance (CL) was estimated from the administered dose divided by AUC0-inf. The volume of distribution at steady state (V ss) was calculated from D i.v.⋅AUMC/AUC^2, where D i.v is the dose administered i.v. in mg per kg of body weight. The concentration versus time profiles of the parent drug and metabolite following both routes of administration were also fitted simultaneously to the pharmacokinetic model with a metabolite compartment to obtain one set of parameters. During iteration process, the fraction of dose absorbed (F) was fixed to the value calculated using the following equation:1 F=AUC0−ti.p.∙Di.v./AUC0−ti.v.∙Di.p.
# where AUC0-t is the area under the concentration versus time curve calculated to the last measured point and D is the dose administered.
# [4] = Krebs Hanseleit buffer, 37 °C, perfusion model without a liver
# Experimental: as §1
# [5] = PK model with a metabolite compartment fitted simultaneously to i.v. and i.p. rat plasma data
# Experimental: as §2
# [6] = male, Wistar, in vivo, ip, 10 mg/kg
# [7] = male, Wistar, in vivo, iv, 1 mg/kg
# [8] = rat, i.v. and i.p. fitted simultaneously
compound,measurement,setting,value
"CN1c2ccccc2C(NCCCCCCC(=O)O)c2ccc(Cl)cc2S1(=O)=O (centres unmarked) [Tianeptine, Tianeptine sodium salt]","apparent hepatobiliary clearance (CLb,app)",[1],0.2 ± 0.09 mL/min
same,stability in rat plasma,[2],no stability related problems
same,t 0.5λz,"[3]; after tianeptine i.p. 10 mg/kg, GM (90% CI), n = 3",1.46 (1.018–2.085) h
same,bioavailability,"[3]; male, Wistar, in vivo, 10 mg/kg, absolute bioavailability, tianeptine i.p. 10 mg/kg vs i.v. 1 mg/kg, Eq. 1",69%
same,CL/F,[3]; [6],51.7 mL/min/kg
same,Cmax,[3]; [6],6650 ng/mL
same,Vd/F,[3]; [6],6.51 L/kg
same,clearance,[3]; [7],30.7 mL/min/kg
same,half-life,[3]; [7],69.6 min
same,Vd,"[3]; male, Wistar, in vivo, iv, 1 mg/kg, V ss (volume of distribution at steady state), tianeptine i.v. 1 mg/kg, GM (90% CI), n = 3",2.03 L/kg
same,Vd,"[3]; male, Wistar, in vivo, iv, 1 mg/kg, V z, tianeptine i.v. 1 mg/kg, GM (90% CI), n = 3",2.41 L/kg
same,absolute bioavailability,"[3]; tianeptine i.p. 10 mg/kg vs i.v. 1 mg/kg, Eq. 1",69.4%
same,C o,"[3]; tianeptine i.v. 1 mg/kg, back-extrapolated, GM (90% CI), n = 3",1.27 (0.86–1.9) mg/L
same,stability under perfusion conditions,[4],no detectable degradation products
same,F (fraction absorbed),"[5]; i.p., fixed to the value calculated by Eq. 1",0.694 fixed
same,half-life,"[5]; male, Wistar, rat, in vivo",15 min
same,k el,"[5]; male, Wistar, rat, in vivo",0.000776 s⁻¹
same,V C (volume of central compartment),"[5]; rat, i.v. 1 mg/kg and i.p. 10 mg/kg fitted simultaneously",0.761 L/kg
same,k 12 (distribution rate constant),[5]; [8],0.504 h⁻¹
same,k 21 (redistribution rate constant),[5]; [8],0.628 h⁻¹
